This passage reports cell number change and AC50 results from PubChem BioAssay AID2685 (National Center for Advancing Translational Sciences (NCATS), 2010).

The list shows a part of the results. Further columns of the screen follow, without active or inactive calls. Most of these compounds were active or inconclusive in the main read-out, so they are no random draw. Potencies come from curve fits of mixed quality, noted in brackets.

A short description of this assay: qHTS Assay for Lipid Storage Modulators in Drosophila S3 Cells.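 For cell number change: cells counted by Cell Tracker Red CMTPX staining in the red channel.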 Conditions: BODIPY lipid droplet fluorescence, 18-24 h; for cell number change: measured here: cell count max response, cells fed with added oleic acid. In short, it runs like this: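 Drosophila S3 cells loaded with oleic acid (400 uM, as added) and compounds at several concentrations; lipid droplets imaged by 488-nm laser-scanning cytometry, 500–530 nm intensity and object ratio to cell channel. Percent activity normalized to 20 uM Triacsin C.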

The mark [1] stands for this setting: measured here: cell number channel AC50, cells fed with added oleic acid.
Setting [2] is: measured here: lipid fluorescence (Fed channel) AC50, cells fed with added oleic acid.

Usually AC50 stands for the concentration at which the activity in the assay is half-maximal. As to `COc1ccc(NC2CC(=O)N(c3ccccc3)C2=O)cc1` (stereo not given), the cell number change is -19.2%. Moreover, under setting [1], the AC50 was 0.13 µM [falling, full curve, poor fit]. Also, the AC50 under setting [2] is 3.26 µM [falling, single point].
Consider `O=C(Nc1ccccc1N1CCOCC1)c1ccc(N2CCCC2=O)cc1`, for which the cell number change was 21.5%. In addition, under setting [2], the AC50 is 2.91 µM [rising, partial curve].
For `CCOC(=O)CSc1nnc(SCCN2C(=O)c3ccccc3C2=O)s1`, the cell number change is -28.5%. The AC50 under setting [1] is 3.26 µM [falling, single point]. Further, under setting [2], the AC50 is 29.1 µM [falling, single point].
In the case of `COc1ccccc1N1C(=O)CCC1(C#N)c1ccc(Br)cc1` (stereo not given), the cell number change was 58.6%. For the same molecule, the AC50 under setting [1] was 11.6 µM [rising, partial curve]. For the same molecule, the AC50 under setting [2] was 6.51 µM [rising, partial curve].
As to `COc1cc(Cl)c(C)cc1NC(=O)COc1ccc(C)nc1[N+](=O)[O-]`, the cell number change was found to be 1.28%. Moreover, under setting [1], the AC50 is 1.84 µM [falling, partial curve]. Further, under setting [2], the AC50 is 18.4 µM [rising, partial curve].
`Cc1nn(-c2nnc(NCc3ccccc3)nn2)c(C)c1Br`: the cell number change was -77.4%. Under setting [1], the AC50 was 29.1 µM [falling, single point]. Moreover, under setting [2], the AC50 is 14.6 µM [falling, partial curve].
As for `Brc1ccc(-c2nnc(-c3ccccc3)c(N3CCSCC3)n2)cc1`, the cell number change is 132%. Moreover, under setting [2], the AC50 was 9.2 µM [rising, single point].
For `CN(C)c1ccc(/C=C2\SC(=S)N(Nc3ncc(C(F)(F)F)cc3Cl)C2=O)cc1`, the cell number change was 2.67%.
Turning to `O=C(CSC1=NCCN1)C1COc2ccccc2O1` (stereo not given), the cell number change is -9.83%. The half-maximal activity concentration (AC50) under setting [2] is 0.0517 µM [falling, full curve].
Turning to `Cc1[nH]n(-c2ccc(C(=O)O)cc2)c(=O)c1CCO`, the cell number change is -10%.
In the case of `C1=C(CCNc2ncnc3c2[nH]c2ccccc23)CCCC1`, the cell number change is -40.4%. Under setting [1], the AC50 is 1.64 µM [falling, partial curve, poor fit]. The AC50 under setting [2] is 0.411 µM [falling, full curve].
Turning to `N/C(=N/O)c1nc(N2CCCC2)nc(N(c2ccccc2)c2ccccc2)n1`, the cell number change was -32.7%. Besides, the AC50 under setting [1] is 0.231 µM [falling, full curve, poor fit]. Further, the AC50 under setting [2] is 0.082 µM [falling, partial curve, poor fit].
Regarding `Cc1[nH]n(-c2ccccc2)c(=O)c1N=Nc1ccc(C(=O)O)cc1`, the cell number change amounted to 9.91%. Besides, under setting [1], the AC50 is 0.00517 µM [rising, full curve, poor fit].
For the molecule `CCOC(=O)N1CCN(c2c(NCCN(C)Cc3ccccc3)c(=O)c2=O)CC1`, the AC50 by setting is: under setting [1], 6.51 µM [falling, single point]; under setting [2], 6.51 µM [falling, single point].
As to `CN(C)S(=O)(=O)c1ccc(Cl)c(C(=O)OCC(=O)NNC(=O)c2cccs2)c1`, the cell number change amounted to 12.8%. The AC50 under setting [2] is 0.92 µM [rising, full curve].
